Results as given in the supplement of paper PMC3334620.
The full ranking holds about 33,000 sequences; the median of “E-score (-0.5 to 0.5)” is about -0.016, and the highest 2% start at about 0.3. Some of the results follow.

target: T1, Yer184c (UniProt P39961); assay: PBM E-score (8-mer binding enrichment) (E-score (-0.5 to 0.5)); higher = stronger / more preferred TF binding; conditions: protein concentration: 100 nM; construct: GST-full length
T1 sequence: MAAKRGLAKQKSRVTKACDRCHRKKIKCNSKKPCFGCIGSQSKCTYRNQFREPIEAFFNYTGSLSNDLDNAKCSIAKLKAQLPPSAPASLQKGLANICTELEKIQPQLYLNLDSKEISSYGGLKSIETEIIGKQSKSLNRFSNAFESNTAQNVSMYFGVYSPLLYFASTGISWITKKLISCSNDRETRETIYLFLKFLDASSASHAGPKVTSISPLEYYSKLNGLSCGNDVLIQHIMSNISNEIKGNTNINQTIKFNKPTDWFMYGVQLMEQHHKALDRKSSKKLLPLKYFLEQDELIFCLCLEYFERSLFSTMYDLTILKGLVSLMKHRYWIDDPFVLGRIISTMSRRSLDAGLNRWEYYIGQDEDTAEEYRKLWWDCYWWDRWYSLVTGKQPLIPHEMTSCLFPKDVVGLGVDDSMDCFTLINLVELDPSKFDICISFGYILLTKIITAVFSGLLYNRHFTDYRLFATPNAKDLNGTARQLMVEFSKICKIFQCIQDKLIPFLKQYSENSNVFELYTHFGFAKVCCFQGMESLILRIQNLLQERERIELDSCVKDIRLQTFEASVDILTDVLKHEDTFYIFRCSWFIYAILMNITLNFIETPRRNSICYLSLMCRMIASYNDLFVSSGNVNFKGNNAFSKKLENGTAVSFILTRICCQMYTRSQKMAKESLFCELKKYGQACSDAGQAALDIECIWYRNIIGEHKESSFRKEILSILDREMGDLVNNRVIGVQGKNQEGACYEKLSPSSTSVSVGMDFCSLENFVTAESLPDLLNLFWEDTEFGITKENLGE
Summary of the method: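 PURExpress in vitro transcription/translation supplied GST-tagged yeast transcription factors, either full-length or DNA-binding domain. Applied at about 100-200 nM to universal all-10-mer Agilent arrays double-stranded by primer extension, the bound protein was detected with fluorescent anti-GST. E-scores, modified Wilcoxon-Mann-Whitney statistics, were given by the Universal PBM Analysis Suite to ungapped eight-base words pooled with their reverse complements after masliner normalisation.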

| Sequence | PBM E-score |
| --- | --- |
| GTCACTTA | 0.122 |
| TTAATTAA | -0.041 |
| ATGGGCCG | 0.0185 |
| GACGCATC | 0.0192 |
| ATTCGTCA | -0.0398 |
| ACCCTGAC | -0.208 |
| GGATCTGA | 0.00733 |
| AGTATCTA | -0.00909 |
| AGTGTGCG | -0.0932 |
| CCTTAGGC | -0.3 |
| ATGGTGTC | -0.218 |
| ACGATTCC | 0.0125 |
| CAATGGGA | -0.0498 |
| ATGGTATC | -0.0563 |
| GTTATTGA | 0.151 |
| TAGGTATA | 0.0269 |
| AAATATGC | 0.0299 |
| GAATGGAC | -0.067 |
| CCGTATTA | 0.257 |
| AAATCCCA | -0.0495 |
| CCAACCGC | -0.0476 |
| GGTGGCTA | -0.219 |

| Sequence | PBM E-score |
| --- | --- |
| TCCGCCCA | -0.181 |
| AAGATTAT | 0.106 |
| TAATACAA | 0.205 |
| CCGGGTCC | 0.132 |
| GATTATTA | 0.185 |
| AATTTAGA | 0.142 |
| GTTGCAGA | 0.0349 |
| TTCTACAA | 0.0858 |
| TCCCTTAA | -0.166 |
| GCGTTCAA | 0.0758 |
| CTTAAATC | 0.142 |
| TCAAGTAA | 0.0762 |
| ATAAGCCG | 0.243 |
| CTCGTTCA | -0.0318 |
| CCAGTTAC | -0.331 |
| ATCCCAGG | -0.103 |
| CCTAAAAA | 0.105 |
| TGGCAAAA | 0.114 |
| ACAATTAT | 0.209 |
| ATTTGTGG | 0.131 |
| ACCAGACT | -0.0238 |
| ACGAAGTG | -0.0865 |

17 successive entries already listed, for reference:

| Sequence | PBM E-score |
| --- | --- |
| GACGCATC | 0.0192 |
| ATTCGTCA | -0.0398 |
| ACCCTGAC | -0.208 |
| GGATCTGA | 0.00733 |
| AGTATCTA | -0.00909 |
| AGTGTGCG | -0.0932 |
| CCTTAGGC | -0.3 |
| ATGGTGTC | -0.218 |
| ACGATTCC | 0.0125 |
| CAATGGGA | -0.0498 |
| ATGGTATC | -0.0563 |
| GTTATTGA | 0.151 |
| TAGGTATA | 0.0269 |
| AAATATGC | 0.0299 |
| GAATGGAC | -0.067 |
| CCGTATTA | 0.257 |
| AAATCCCA | -0.0495 |

Further entries follow.

| Sequence | PBM E-score |
| --- | --- |
| GAAGAGCC | 0.181 |
| AGTCCGTA | 0.114 |
| CCCCTATC | -0.21 |
| ACTCGCAC | -0.111 |
| ACCGCACG | -0.0556 |
| ATATAGTG | 0.116 |
| CCCGTCGG | 0.0504 |
| GTTCACTA | 0.0701 |
| CAATTGCG | -0.0249 |
| AATGTTCC | 0.112 |
| AGGTCATC | -0.152 |
| GCCCCAAC | -0.052 |
| ACAGCCTA | 0.124 |
| ATCAACTG | -0.0529 |
| AAGAGGTC | -0.12 |
| GCCGTTAA | 0.169 |
| ACATAGCG | -0.0851 |
| CTTTGCAC | 0.0301 |
| CAGGAGAC | -0.135 |
| GCATCCTA | -0.00376 |
| ACAACGGT | -0.0406 |
| ACACGGTA | 0.0286 |

| Sequence | PBM E-score |
| --- | --- |
| TAGCTGCA | -0.221 |
| ATATGGGC | -0.119 |
| AAACGATG | 0.116 |
| CCACCGAC | -0.0887 |
| AAAGAGAT | 0.0167 |
| TACAGATA | 0.134 |
| AATCCTGC | -0.119 |
| ACGCGCAC | -0.0803 |
| GAAGAGCA | -0.0841 |
| CAAGAGCA | -0.211 |
| ATCCACCA | -0.189 |
| CCACGCAA | -0.0475 |
| CTTGCTTA | -0.124 |
| ATATGCCA | -0.0465 |
| AACCCGGT | 0.115 |
| TACACCGA | 0.118 |
| GAAAAGGC | -0.0855 |
| GTGCCTGA | -0.173 |
| AACACATA | 0.183 |
| TCAACAAA | 0.156 |
